# System: CT DNA
# Assay: CT DNA binding by UV–Vis absorption spectroscopy
# Set-up: species or system calf
# Conditions: compound 40 µM, CT DNA 0 to 60 µM; footnote 1 hypsochromic shift, 2 bathochromic shift
# Procedure: Absorption spectroscopy is a convenient and simple method for probing the binding of small molecules to DNA. The interaction of selected acridine–thiosemicarbazone derivatives with CT DNA was studied in the 220–500 nm region. Binding constants (Kb) were calculated from [DNA]/(Ɛa − Ɛf) versus [DNA], in which Kb is given by the ratio of slope to the intercept. […] For this, the regions chosen were the ones with the highest absorption intensity above 300 nm, due to the lower interference in DNA absorption in this region (ESI, Figures S50 and S53).
# The concentration of the calf thymus, Type I, fibers (CT DNA), was determined based on the extinction coefficient of the absorbance at 260 nm (6600 L mol^−1 cm^−1). All compounds were dissolved in methanol (HPLC grade) at a concentration of 1 mmol L^−1 (stock solution). Working solutions were prepared by diluting the stock solution using Tris-HCl buffer (pH 7.4), with concentrations of 40 µmol L^−1. Under the optimized concentration, the compounds were titered with increasing concentrations of CT DNA (5 to 60 µmol L^−1). After shaking the system and incubating at room temperature for 10 min, the measurements were recorded using a JASCO J818 spectropolarimeter in the range of 220 to 500 nm at 298 K. The intrinsic bond constant (Kb) was obtained by adjusting the data according to the equation below:[DNA]/(Ɛa − Ɛf) = [DNA]/(Ɛb − Ɛf) + 1/[Kb (Ɛb − Ɛf)] where Ɛa, Ɛb and Ɛf are the apparent extinction coefficient of the compounds, the extinction coefficient of the compounds found in their […] and the extinction coefficient of the compounds when fully DNA-bound, respectively. The graph of [DNA]/(Ɛa − Ɛf) versus [DNA] was used to obtain the Kb from the ratio between the slope and the intercept, as previously described in the literature. Binding data were obtained using SigmaPlot 10.0 software. The study of possible DNA denaturation using methanol–water solutions was evaluated up to the maximum final concentration of methanol in the assays (6%) (ESI, Figures S50 and S53).
row,Compound,∆λ
1,"Oc1ccc(/C=N/NC(=S)Nc2c3ccccc3nc3ccccc23)cc1 [CL-07, (E)-N-(acridin-9-yl)-2-(4-hydroxybenzylidene)hydrazine-1-carbothioamide]",3 ^1
2,"CC[n+]1c(-c2ccccc2)c2cc(N)ccc2c2ccc(N)cc21 [EtBr, ethidium bromide, reference compound]",6 ^2
3,"COc1ccc2nc3cc(Cl)ccc3c(NC(=S)N/N=C/c3cccc(O)c3)c2c1 [DL-08, (E)-N-(6-chloro-2-methoxyacridin-9-yl)-2-(3-hydroxybenzylidene)hydrazine-1-carbothioamide]",3 ^2
4,"COc1ccc2nc3cc(Cl)ccc3c(NC(=S)N/N=C/c3ccccc3)c2c1 [DL-01, (E)-2-benzylidene-N-(6-chloro-2-methoxyacridin-9-yl)hydrazine-1-carbothioamide]",2 ^2

# Reference: article PMC9506480, “Synthesis and Evaluation of Antiproliferative Activity, Topoisomerase IIα Inhibition, DNA Binding and Non-Clinical Toxicity of New Acridine–Thiosemicarbazone Derivatives” (Pharmaceuticals, 2022)
